Source: the supplement of paper PMC10849652
Some of the results follow.

Amino acid sequences for entries named in this document (tags omitted). A change or cut given only in a name is not applied to a line headed by its entry.
UniProt Q9HC36: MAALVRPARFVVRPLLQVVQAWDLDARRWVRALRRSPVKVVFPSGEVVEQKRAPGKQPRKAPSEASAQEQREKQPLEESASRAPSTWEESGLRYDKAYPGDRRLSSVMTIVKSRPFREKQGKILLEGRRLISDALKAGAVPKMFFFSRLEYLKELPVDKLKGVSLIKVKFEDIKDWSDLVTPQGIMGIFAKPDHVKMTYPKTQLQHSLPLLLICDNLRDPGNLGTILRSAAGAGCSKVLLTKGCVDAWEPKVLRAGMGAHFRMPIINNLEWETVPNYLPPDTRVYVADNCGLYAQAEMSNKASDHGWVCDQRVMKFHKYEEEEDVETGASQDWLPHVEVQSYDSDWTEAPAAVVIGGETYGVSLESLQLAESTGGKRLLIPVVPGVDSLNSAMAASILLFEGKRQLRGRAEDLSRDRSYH
UniProt Q99550: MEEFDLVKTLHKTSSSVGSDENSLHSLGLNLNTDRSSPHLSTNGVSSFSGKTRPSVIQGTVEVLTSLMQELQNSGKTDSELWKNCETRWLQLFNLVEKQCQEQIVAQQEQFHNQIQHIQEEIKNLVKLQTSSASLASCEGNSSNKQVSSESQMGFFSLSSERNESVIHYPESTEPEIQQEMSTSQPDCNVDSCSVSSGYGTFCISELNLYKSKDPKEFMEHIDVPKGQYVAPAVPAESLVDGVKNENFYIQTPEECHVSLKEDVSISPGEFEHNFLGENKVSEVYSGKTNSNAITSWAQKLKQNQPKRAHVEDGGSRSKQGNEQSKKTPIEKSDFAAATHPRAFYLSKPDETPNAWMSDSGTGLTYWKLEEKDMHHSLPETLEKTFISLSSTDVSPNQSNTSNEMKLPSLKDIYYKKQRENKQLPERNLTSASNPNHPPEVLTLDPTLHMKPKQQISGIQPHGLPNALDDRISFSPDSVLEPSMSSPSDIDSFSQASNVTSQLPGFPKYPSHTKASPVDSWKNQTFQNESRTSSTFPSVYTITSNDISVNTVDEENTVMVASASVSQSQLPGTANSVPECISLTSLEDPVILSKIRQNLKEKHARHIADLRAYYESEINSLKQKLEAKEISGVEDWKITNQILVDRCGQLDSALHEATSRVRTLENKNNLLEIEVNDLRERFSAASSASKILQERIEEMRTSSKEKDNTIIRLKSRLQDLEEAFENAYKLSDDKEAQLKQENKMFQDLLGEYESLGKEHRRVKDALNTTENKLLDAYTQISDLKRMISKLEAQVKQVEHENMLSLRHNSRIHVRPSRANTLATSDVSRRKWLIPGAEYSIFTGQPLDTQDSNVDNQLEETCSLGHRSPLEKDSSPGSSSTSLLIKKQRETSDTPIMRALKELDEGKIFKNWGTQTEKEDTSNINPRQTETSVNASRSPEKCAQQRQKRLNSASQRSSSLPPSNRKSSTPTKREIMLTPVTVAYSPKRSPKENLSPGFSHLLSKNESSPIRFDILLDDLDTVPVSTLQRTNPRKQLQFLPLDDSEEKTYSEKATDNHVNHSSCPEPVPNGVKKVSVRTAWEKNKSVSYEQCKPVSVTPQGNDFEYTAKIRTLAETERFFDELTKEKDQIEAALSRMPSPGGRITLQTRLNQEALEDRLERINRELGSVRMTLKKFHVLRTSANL
UniProt Q9H081: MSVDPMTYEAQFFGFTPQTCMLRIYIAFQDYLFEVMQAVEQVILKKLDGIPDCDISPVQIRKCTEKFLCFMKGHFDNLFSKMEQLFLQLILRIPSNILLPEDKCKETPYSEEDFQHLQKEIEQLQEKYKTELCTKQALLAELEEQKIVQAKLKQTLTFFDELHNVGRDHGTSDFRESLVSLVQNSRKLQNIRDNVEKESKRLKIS
UniProt Q9Y4U1: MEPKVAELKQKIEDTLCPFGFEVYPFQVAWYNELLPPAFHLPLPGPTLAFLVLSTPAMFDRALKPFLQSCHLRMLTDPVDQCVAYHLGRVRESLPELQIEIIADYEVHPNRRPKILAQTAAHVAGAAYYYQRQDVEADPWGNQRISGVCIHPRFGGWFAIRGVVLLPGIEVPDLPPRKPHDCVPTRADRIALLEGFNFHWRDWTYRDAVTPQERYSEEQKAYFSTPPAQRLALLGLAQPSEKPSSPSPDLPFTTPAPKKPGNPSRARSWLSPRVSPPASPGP
UniProt Q7Z6M3: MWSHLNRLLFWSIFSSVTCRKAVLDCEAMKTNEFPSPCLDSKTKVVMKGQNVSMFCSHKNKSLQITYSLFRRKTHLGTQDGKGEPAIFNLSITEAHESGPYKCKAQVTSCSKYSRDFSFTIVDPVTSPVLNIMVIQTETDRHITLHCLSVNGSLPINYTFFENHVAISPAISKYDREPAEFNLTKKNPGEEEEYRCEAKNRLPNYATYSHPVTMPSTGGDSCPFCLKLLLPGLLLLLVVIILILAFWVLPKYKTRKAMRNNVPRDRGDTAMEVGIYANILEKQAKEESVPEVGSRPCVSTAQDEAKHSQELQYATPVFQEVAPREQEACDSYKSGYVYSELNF
UniProt P58340: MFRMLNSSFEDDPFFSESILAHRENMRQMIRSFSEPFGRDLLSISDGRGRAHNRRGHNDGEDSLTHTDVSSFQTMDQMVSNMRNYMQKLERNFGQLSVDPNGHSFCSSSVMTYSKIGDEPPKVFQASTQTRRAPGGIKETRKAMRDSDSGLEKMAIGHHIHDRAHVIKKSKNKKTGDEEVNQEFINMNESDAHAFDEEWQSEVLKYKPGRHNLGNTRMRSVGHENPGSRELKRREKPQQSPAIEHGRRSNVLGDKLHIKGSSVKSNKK
UniProt Q8IY33: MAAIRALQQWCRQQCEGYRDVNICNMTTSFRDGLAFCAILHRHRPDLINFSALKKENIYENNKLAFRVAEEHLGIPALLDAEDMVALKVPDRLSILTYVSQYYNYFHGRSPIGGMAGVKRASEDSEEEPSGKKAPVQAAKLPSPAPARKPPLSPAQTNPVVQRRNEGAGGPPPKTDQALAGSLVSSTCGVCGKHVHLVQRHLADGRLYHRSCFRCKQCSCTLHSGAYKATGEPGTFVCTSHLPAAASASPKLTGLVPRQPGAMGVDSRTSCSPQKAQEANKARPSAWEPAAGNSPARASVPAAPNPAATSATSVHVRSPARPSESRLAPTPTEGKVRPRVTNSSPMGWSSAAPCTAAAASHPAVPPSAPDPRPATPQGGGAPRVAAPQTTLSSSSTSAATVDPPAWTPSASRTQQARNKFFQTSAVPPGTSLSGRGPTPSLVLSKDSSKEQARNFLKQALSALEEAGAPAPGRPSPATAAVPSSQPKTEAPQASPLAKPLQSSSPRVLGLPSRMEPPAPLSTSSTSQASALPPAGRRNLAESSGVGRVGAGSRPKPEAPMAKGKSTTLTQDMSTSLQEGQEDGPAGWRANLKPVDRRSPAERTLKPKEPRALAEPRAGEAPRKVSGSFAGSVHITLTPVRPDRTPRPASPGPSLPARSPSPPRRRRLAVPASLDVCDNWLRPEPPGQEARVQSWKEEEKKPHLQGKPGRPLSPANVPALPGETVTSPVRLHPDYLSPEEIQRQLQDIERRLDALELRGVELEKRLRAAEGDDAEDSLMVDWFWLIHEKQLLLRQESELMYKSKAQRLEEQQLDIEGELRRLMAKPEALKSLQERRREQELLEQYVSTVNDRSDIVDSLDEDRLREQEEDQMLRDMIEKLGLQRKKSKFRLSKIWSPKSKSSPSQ
UniProt O60291: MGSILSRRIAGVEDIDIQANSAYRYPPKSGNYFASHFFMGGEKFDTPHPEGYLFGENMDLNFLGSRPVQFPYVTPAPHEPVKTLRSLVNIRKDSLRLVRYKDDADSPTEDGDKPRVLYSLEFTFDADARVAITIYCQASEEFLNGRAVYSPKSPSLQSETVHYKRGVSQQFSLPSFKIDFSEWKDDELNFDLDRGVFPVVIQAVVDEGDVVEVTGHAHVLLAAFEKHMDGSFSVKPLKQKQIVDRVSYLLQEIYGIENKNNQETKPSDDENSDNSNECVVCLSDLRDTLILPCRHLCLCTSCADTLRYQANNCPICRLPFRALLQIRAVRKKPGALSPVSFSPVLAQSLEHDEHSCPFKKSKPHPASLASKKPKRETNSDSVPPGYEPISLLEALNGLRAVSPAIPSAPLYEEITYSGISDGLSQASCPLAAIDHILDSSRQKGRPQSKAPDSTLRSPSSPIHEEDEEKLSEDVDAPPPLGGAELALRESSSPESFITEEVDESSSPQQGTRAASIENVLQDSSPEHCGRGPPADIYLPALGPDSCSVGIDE
UniProt Q09328: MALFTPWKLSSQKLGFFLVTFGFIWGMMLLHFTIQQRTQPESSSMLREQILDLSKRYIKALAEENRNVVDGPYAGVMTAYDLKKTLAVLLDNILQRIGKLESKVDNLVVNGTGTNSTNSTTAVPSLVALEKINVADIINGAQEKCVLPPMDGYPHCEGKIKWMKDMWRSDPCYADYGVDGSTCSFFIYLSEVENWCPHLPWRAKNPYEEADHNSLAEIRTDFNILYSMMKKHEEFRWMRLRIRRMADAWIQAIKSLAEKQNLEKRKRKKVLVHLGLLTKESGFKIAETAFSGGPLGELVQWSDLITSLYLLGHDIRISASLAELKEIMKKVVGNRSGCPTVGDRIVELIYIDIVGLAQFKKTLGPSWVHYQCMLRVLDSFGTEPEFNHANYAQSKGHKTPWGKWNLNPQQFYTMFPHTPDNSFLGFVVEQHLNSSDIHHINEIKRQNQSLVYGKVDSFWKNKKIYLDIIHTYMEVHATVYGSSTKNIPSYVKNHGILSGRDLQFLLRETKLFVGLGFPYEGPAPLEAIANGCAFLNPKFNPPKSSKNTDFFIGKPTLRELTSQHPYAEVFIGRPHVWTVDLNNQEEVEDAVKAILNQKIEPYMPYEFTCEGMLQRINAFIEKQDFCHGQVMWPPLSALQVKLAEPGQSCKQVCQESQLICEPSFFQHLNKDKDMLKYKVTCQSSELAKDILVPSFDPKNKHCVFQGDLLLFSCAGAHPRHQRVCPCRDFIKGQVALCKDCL
UniProt Q9BUB5: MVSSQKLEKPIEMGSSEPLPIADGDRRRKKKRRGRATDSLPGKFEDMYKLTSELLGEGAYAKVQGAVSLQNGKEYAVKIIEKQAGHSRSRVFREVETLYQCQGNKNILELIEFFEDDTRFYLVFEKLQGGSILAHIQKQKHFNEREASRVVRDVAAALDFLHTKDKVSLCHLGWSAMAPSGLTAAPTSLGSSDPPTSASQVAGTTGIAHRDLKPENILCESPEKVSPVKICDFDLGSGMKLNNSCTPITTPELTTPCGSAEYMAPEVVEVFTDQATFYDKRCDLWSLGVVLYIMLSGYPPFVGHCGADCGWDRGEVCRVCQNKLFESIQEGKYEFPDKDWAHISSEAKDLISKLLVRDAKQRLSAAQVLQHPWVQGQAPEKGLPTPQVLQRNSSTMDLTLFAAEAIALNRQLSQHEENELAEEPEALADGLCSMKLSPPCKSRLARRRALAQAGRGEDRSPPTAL
UniProt A9UHW6: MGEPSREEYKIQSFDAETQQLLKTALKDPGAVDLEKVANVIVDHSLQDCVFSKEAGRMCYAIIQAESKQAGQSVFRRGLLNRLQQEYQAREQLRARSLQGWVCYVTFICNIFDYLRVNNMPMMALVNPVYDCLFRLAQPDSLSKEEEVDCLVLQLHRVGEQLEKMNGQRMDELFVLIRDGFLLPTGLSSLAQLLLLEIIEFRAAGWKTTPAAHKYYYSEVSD
UniProt Q9HCE1: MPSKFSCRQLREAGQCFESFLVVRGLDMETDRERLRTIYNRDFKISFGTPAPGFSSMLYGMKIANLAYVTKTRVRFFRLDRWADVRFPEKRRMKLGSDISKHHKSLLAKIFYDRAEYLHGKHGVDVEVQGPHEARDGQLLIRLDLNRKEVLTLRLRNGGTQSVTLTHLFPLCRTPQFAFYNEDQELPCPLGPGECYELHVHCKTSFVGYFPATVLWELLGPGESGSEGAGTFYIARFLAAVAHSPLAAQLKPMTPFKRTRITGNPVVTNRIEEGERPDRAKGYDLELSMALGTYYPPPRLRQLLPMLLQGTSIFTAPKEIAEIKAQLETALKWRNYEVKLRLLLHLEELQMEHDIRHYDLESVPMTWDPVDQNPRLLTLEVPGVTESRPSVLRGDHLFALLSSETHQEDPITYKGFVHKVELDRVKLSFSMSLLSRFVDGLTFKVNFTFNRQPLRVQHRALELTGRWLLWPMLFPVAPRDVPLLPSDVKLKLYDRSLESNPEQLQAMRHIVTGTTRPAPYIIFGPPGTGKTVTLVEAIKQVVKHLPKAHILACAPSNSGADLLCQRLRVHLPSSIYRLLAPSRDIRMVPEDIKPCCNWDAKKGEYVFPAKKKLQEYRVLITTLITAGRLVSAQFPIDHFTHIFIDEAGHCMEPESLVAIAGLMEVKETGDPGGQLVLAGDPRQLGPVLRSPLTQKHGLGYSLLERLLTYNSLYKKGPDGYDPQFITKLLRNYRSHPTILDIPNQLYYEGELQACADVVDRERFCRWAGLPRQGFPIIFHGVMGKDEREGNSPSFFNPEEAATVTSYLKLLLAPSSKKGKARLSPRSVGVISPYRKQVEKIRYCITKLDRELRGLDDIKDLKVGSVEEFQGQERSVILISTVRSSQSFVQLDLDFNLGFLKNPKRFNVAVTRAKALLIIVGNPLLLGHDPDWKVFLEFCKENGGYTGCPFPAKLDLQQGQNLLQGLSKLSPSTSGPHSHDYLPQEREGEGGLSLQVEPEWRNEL

What was measured:
Experiment in all cases: log2 fold change, soluble protein after heating vs DMSO (PISA); higher = thermal stabilisation; K562 lysate, 10 uM; active = over 0.2 and 3.5 SD of the protein, either way, in both replicates (recomputed)
[1] = compound: NCC(=O)Nc1ccc(-n2nc(C(F)(F)F)cc2-c2ccc3c(ccc4ccccc43)c2)cc1
Outline: (§1)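 The values are log-two fold changes in thermal stability compared with solvent controls and come from duplicates. They were obtained by TMTpro 16plex LC-MS/MS, with channel sums equalised, on the supernatant after 21,000xg for 90 min. That supernatant came from crude K562 extract at 1 mg/mL protein treated with 10 μM compound for 30 min, heated for 3 min across 48°C-58°C, pooled and brought to 0.5% NP-40 at 4°C.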

vorinostat = compound: O=C(CCCCCCC(=O)Nc1ccccc1)NO [vorinostat]
Outline: as §1

silmitasertib = compound: O=C(O)c1ccc2c(c1)nc(Nc1cccc(Cl)c1)c1ccncc12 [silmitasertib]
Outline: as §1

[2] = compound: O=C1NC(=O)C(c2cnc3ccccn23)=C1c1cn2c3c(cc(F)cc13)CN(C(=O)N1CCCCC1)CC2
Outline: as §1

entospletinib = compound: c1cn2cc(-c3ccc4cn[nH]c4c3)nc(Nc3ccc(N4CCOCC4)cc3)c2n1 [entospletinib]
Outline: as §1

Measured: log2 fold change

MPP5 (UniProt Q8N3R9)
inactive: [1] 0.015 | vorinostat 0.016 | silmitasertib -0.1 | [2] 0 | entospletinib 0.013

MND1 (UniProt Q9BWT6)
inactive: [1] -0.009 | vorinostat -0.013 | silmitasertib 0.034 | [2] -0.023 | entospletinib -0.006

MRM3 (UniProt Q9HC36)
inactive: [1] -0.073 | vorinostat 0.058 | silmitasertib -0.025 | [2] 0.028 | entospletinib -0.027

MITF (UniProt O75030)
inactive: [1] -0.005 | vorinostat -0.044 | silmitasertib 0.062 | [2] 0.077 | entospletinib 0.007

MPHOSPH9 (UniProt Q99550)
inactive: [1] -0.185 | vorinostat -0.236 | silmitasertib -0.145 | [2] -0.043 | entospletinib -0.045

MIS12 (UniProt Q9H081)
inactive: [1] -0.022 | vorinostat -0.2 | silmitasertib 0.007 | [2] 0.019 | entospletinib -0.002

MMACHC (UniProt Q9Y4U1)
inactive: [1] 0.012

MILR1 (UniProt Q7Z6M3)
inactive: [1] -0.005 | vorinostat -0.221 | silmitasertib 0.066 | [2] 0.021 | entospletinib -0.279

MLLT11 (UniProt Q13015)
inactive: [1] 0.08 | vorinostat 0.104 | silmitasertib -0.203 | [2] -0.016 | entospletinib 0.034

MLXIP (UniProt Q9HAP2)
inactive: [1] 0.037 | silmitasertib 0.026 | [2] 0.079 | entospletinib 0.03
active: vorinostat -0.314

MIA2 (UniProt Q96PC5)
inactive: [1] 0.054 | vorinostat -0.014 | silmitasertib -0.064 | [2] -0.038 | entospletinib -0.062

MGST1 (UniProt P10620)
inactive: [1] -0.013 | vorinostat 0.037 | silmitasertib -0.013 | [2] 0.031 | entospletinib -0.01

MLF1 isoform 3 (UniProt P58340)
inactive: [1] 0.026

MICALL2 (UniProt Q8IY33)
inactive: [1] 0.013 | vorinostat -0.156 | silmitasertib -0.006 | [2] 0 | entospletinib -0.005

MIB1 (UniProt Q86YT6)
inactive: [1] 0.026 | vorinostat -0.074 | silmitasertib 0.002 | [2] 0.077 | entospletinib -0.009

MKRN3 (UniProt Q13064)
inactive: [1] 0.045 | vorinostat -0.123 | silmitasertib 0.206 | [2] -0.008

MGRN1 isoform 2 (UniProt O60291)
inactive: [1] -0.063 | vorinostat 0.178 | silmitasertib 0.005 | [2] 0.096 | entospletinib -0.006

MICB, A0A140T979
inactive: [1] 0.068 | vorinostat 0.196 | silmitasertib -0.121 | [2] 0.021 | entospletinib 0.35

MGAT5 (UniProt Q09328)
inactive: [1] 0.054 | vorinostat 0.139 | silmitasertib -0.014 | [2] 0.013 | entospletinib 0.063

MGAT1 (UniProt P26572)
inactive: [1] 0.041 | vorinostat 0.112 | silmitasertib -0.089 | [2] 0.033 | entospletinib -0.112

MPST isoform 2 (UniProt P25325)
inactive: [1] 0.034 | vorinostat -0.058 | silmitasertib 0.005 | [2] -0.021 | entospletinib 0.008

MKNK1 (UniProt Q9BUB5)
inactive: [1] 0.022 | vorinostat -0.056 | silmitasertib -0.001 | [2] -0.012 | entospletinib 0.021

MIF4GD isoform 3 (UniProt A9UHW6)
inactive: [1] 0.008 | silmitasertib 0.018 | [2] -0.012 | entospletinib -0.032
active: vorinostat -0.232

Quoted from the results shown (2 entries):
MGAT1 (UniProt P26572)
inactive: [1] 0.041 | vorinostat 0.112 | silmitasertib -0.089 | [2] 0.033 | entospletinib -0.112

MPST isoform 2 (UniProt P25325)
inactive: [1] 0.034 | vorinostat -0.058 | silmitasertib 0.005 | [2] -0.021 | entospletinib 0.008

Later entries

MMUT (UniProt P22033)
inactive: [1] -0.004 | vorinostat 0.054 | silmitasertib 0.026 | [2] 0.002 | entospletinib -0.015

MOV10 (UniProt Q9HCE1)
inactive: [1] 0.013 | vorinostat 0.066 | silmitasertib -0.009 | [2] -0.001 | entospletinib 0.007

MOCS1 isoform 8 (UniProt Q9NZB8)
inactive: [1] -0.1 | vorinostat 0.06 | silmitasertib -0.018 | [2] -0.111 | entospletinib -0.051

MICOS10 (UniProt Q5TGZ0)
inactive: [1] -0.15 | vorinostat -0.025 | silmitasertib 0.045 | [2] -0.014 | entospletinib -0.066

MIER1 isoform 12 (UniProt Q8N108)
inactive: [1] 0.017 | vorinostat 0.049 | silmitasertib -0.028 | [2] -0.005 | entospletinib 0.002
